# Measurements reported in PubChem BioAssay (NCATS).
# The chains behind the UniProt entries cited, without tags or fusion partners. Where a name states a change or a piece, a line headed by the entry shows the natural chain unless it says otherwise.
# UniProt P03372, whole entry, looked up: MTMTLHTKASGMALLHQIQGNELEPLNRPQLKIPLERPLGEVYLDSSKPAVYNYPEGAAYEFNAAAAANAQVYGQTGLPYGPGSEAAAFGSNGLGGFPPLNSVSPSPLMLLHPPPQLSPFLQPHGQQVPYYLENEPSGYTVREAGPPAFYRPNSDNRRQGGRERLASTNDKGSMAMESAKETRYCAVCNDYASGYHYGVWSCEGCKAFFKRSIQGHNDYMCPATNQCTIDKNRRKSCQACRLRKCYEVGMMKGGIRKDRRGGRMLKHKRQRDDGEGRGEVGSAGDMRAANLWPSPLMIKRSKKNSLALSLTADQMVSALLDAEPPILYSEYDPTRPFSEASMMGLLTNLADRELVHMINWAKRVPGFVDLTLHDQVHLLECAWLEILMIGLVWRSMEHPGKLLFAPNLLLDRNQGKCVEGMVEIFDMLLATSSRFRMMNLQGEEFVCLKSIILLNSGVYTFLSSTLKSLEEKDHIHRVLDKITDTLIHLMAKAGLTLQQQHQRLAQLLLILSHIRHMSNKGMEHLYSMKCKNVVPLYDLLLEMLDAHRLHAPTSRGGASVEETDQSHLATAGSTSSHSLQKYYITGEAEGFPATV
# UniProt Q03181: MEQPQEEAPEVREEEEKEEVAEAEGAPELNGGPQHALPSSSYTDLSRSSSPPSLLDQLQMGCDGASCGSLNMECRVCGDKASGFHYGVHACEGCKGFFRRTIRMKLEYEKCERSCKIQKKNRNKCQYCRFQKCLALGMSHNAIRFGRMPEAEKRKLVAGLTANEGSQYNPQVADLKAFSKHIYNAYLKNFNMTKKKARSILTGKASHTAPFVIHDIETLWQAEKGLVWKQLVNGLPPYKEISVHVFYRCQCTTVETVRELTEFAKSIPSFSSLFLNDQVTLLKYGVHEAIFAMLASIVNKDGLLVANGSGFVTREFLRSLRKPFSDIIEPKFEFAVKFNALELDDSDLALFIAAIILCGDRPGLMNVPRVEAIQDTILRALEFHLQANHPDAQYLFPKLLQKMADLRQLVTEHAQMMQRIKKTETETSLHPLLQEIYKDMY
# UniProt P19793: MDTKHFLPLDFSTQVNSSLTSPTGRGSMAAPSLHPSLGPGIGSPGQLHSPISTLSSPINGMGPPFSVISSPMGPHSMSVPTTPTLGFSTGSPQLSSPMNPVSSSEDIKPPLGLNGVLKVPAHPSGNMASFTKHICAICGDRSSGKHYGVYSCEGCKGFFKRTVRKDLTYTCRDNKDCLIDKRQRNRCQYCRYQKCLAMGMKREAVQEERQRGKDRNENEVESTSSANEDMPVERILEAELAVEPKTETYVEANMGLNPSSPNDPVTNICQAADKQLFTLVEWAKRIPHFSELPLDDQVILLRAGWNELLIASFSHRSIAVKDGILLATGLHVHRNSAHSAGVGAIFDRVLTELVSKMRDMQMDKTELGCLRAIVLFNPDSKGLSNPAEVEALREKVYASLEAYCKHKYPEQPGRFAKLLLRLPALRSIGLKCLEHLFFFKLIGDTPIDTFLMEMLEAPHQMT
# UniProt P10828: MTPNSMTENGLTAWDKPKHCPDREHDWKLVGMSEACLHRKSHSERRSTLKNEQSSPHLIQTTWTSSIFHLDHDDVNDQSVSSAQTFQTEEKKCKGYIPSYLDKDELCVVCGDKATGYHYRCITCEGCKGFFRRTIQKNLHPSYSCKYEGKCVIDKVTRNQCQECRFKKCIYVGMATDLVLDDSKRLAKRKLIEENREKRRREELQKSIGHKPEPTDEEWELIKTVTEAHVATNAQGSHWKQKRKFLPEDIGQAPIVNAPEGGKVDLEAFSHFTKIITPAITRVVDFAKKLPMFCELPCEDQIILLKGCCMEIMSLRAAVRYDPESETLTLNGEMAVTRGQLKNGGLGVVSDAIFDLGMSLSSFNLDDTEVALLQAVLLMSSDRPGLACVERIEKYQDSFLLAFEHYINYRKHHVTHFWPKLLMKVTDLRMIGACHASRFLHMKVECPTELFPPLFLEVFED
# UniProt Q07869: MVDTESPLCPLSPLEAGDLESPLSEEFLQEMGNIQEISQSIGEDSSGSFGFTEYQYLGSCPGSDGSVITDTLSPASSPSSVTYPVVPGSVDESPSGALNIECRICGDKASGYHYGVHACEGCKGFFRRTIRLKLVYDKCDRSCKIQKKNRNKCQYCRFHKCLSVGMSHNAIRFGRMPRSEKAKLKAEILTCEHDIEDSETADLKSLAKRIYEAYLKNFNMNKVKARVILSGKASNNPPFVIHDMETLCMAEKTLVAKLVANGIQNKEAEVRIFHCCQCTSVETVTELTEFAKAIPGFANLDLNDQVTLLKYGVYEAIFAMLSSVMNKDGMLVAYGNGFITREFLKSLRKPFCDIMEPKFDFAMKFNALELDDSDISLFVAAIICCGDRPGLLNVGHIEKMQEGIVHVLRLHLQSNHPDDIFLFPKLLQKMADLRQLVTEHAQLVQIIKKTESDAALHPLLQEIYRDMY
# For part of these data: The hits were mostly taken out for another list; the other results follow. Inconclusive results are not listed. The list shows a part of the results, in another mix than the full data. The source made the active and inactive calls. Unless noted, the call rests on the fitted dose curve.
# Experiments:
# [1] = molecular target: Estrogen receptor (Homo sapiens) (UniProt P03372); experiment: qHTS assay for small molecule antagonists of estrogen receptor alpha signaling (AID 588513; active means well fitted curve in the direction sought with a large enough effect in the signal ratio, with a control signal flat, not every such curve was filed as active; the % refers to the signal ratio; further: on the % scale 0 is the no-effect control and ±100 the full control effect); settings: ER-alpha-UAS-bla HEK293, beta-lactamase ratio, antagonist mode; at 76.9 µM (top of the series)
# In short: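 Fluorescence from CCF4 substrate after 2 h at room temperature gave reporter activity; cells had been exposed to compound and 0.5nM 17-beta-estradiol for 18 h at 37 C. Hill-equation fitting yielded IC50 and maximal response.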
# [2] = molecular target: Estrogen receptor (Homo sapiens) (UniProt P03372); experiment: qHTS assay for small molecule agonists of estrogen receptor alpha signaling (AID 588514); settings: ER-alpha-UAS-bla HEK293, beta-lactamase ratio, 18 h, percent of full estradiol response, vehicle zero; at 76.8 µM (top of the series);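 further: 0% = vehicle only and 100% = reference agonist; nearly all actives have a fitted effect of over 70% in size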
# In short: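 Read-out: CCF4 fluorescence from a beta-lactamase reporter in ER-alpha-UAS-bla HEK 293 cells after 18 hrs of compound exposure at 37 C. Normalized to 20 nM 17-beta-estradiol (100%) and DMSO (0%).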
# [3] = molecular target: Bile acid receptor (Homo sapiens) (UniProt Q96RI1); experiment: qHTS assay for small molecule antagonists of farnesoid X receptor signaling (AID 588526); settings: HEK293T FXR-UAS-bla, beta-lactamase ratio, antagonist mode; at 76.7 µM (top of the series); further: on the % scale 0 is the no-effect control and ±100 the full control effect
# In short: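 Concentration-response titrations were fitted to the Hill equation for half-maximal inhibition and maximal response, with data normalised to 50 uM chenodeoxycholic acid and DMSO control wells. Cells: FXR-UAS-bla HEK293T, dialyzed FBS.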
# [4] = molecular target: Bile acid receptor (Homo sapiens) (UniProt Q96RI1); experiment: qHTS assay for small molecule agonists of farnesoid X receptor signaling (AID 588527); settings: HEK293T FXR-UAS-bla, beta-lactamase ratio, 16 h; stronger effect = higher value;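 further: 0% = vehicle basal and 100% = reference agonist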
# In short: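 FXR-UAS-bla HEK293T, 10% dialyzed FBS; cpds up to 92 uM titration, 16 h 37 C; CCF4 dye 2 h RT; fluorescence. Normalized to chenodeoxycholic acid 100 uM (100%) and DMSO (0%); Hill fit gives EC50, efficacy.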
# [5] = molecular target: Glucocorticoid receptor (Homo sapiens) (UniProt P04150); experiment: qHTS assay for small molecule agonists of glucocorticoid receptor signaling (AID 588532; active means well fitted curve in the direction sought with a large enough effect in the signal ratio, with a control signal flat; the % refers to the signal ratio;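 further: 100% = dexamethasone at 0.1 µM and 0% = DMSO only wells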); settings: HeLa MMTV-bla, beta-lactamase ratio, agonist, 18 h; stronger effect = higher value; percent of dexamethasone control, DMSO zero
# In short: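 Stimulation of a glucocorticoid response element-driven beta-lactamase gene was measured in HeLa cells. Responses were scaled between DMSO basal and 0.1 uM dexamethasone, then fitted for half-maximal stimulation.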
# [6] = molecular target: Glucocorticoid receptor (Homo sapiens) (UniProt P04150); experiment: qHTS assay for small molecule antagonists of glucocorticoid receptor signaling (AID 588533; active means well fitted inhibition curve with a large enough effect in the signal ratio, with a control signal flat, not every such curve was filed as active; the % refers to the signal ratio;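 further: cells stimulated with 2 nM dexamethasone as agonist; on the % scale 0 is the no-effect control and ±100 the full control effect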); settings: HeLa MMTV-bla, GRE beta-lactamase ratio, antagonist mode, 18 h; at 76.8 µM (top of the series)
# In short: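 Antagonist-mode qHTS: compound titrations added to GRE-bla HeLa cells, then dexamethasone 2 nM final; 18 h, 37 C. CCF4 FRET fluorescence normalized to dexamethasone and DMSO; IC50 from Hill fit.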
# [7] = molecular target: Peroxisome proliferator-activated receptor delta (Homo sapiens) (UniProt Q03181); experiment: qHTS assay for small molecule agonists of peroxisome proliferator-activated receptor delta signaling (AID 588534); settings: HEK293T PPARdelta-UAS-bla, beta-lactamase ratio, 18 h; at 76.7 µM (top of the series);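 further: 0% = DMSO basal wells and 100% = positive control agonist at 10 µM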
# In short: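 Titration series tested in agonist mode on beta-lactamase reporter cells; 18 hrs at 37 C after a 5 hr pre-incubation. Readout: CCF4 fluorescence, 2 hrs RT. Hill equation gives EC50 and maximal response.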
# [8] = qHTS assay for small molecule antagonists of peroxisome proliferator-activated receptor delta signaling (AID 588535; active means well fitted inhibition curve with a large enough effect in the signal ratio, with a control signal flat, not every such curve was filed as active; the % refers to the signal ratio;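 on max response: cells co-treated with a PPAR-delta agonist as stimulator during compound exposure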); settings: HEK293T PPARd-UAS-bla, beta-lactamase FRET ratio, 18 h; 460 nm channel
# In short: (§1)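 Compounds tested in titration on PPAR-delta-UAS-bla HEK293T cells grown in charcoal/dextran-stripped serum (2%); beta-lactamase activity read via CCF4 emission at 460 and 530 nm.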
# [9] = molecular target: Peroxisome proliferator-activated receptor delta (Homo sapiens) (UniProt Q03181); experiment: as above; settings: HEK293T PPARd-UAS-bla, beta-lactamase FRET ratio, 18 h; at 76.7 µM (top of the series)
# In short: as §1
# [10] = molecular target: Peroxisome proliferator-activated receptor gamma (Homo sapiens) (UniProt P37231); experiment: qHTS assay for small molecule agonists of peroxisome proliferator-activated receptor gamma signaling (AID 588536; active means well fitted curve in the direction sought with a large enough effect in the signal ratio, with a control signal flat, not every such curve was filed as active; the % refers to the signal ratio;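 further: 0% = DMSO basal wells and 100% = rosiglitazone at 2 µM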); settings: HEK293 PPARg-UAS-bla, beta-lactamase ratio, 16 h, percent of rosiglitazone response, DMSO as zero; at 76.7 µM (top of the series)
# In short: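 Compound treatment: 16 h, 37 C, HEK293 GeneBLAzer cells. Detection: CCF4, 2 h RT. Values: Hill-fit EC50, efficacy as % of 2 uM rosiglitazone.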
# [11] = molecular target: Peroxisome proliferator-activated receptor gamma (Homo sapiens) (UniProt P37231); experiment: qHTS assay for small molecule antagonists of peroxisome proliferator-activated receptor gamma signaling (AID 588537; active means well fitted inhibition curve with a large enough effect in the signal ratio, with a control signal flat, not every such curve was filed as active; the % refers to the signal ratio;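 further: reporter cells co-stimulated with 50 nM rosiglitazone agonist during compound treatment; % of control where 0% means no effect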); settings: HEK293 PPARg-UAS-bla, beta-lactamase ratio, antagonist mode; at 76.8 µM (top of the series)
# In short: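 HEK293 cells, PPAR-gamma-UAS-bla, 3000/well. Pre-incubation 6-6.5 h, 37 C. Compound titration with rosiglitazone 50 nM final, 16 h. CCF4 dye, 2 h RT, dual-emission fluorescence.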
# [12] = molecular target: Vitamin D3 receptor (Homo sapiens) (UniProt P11473); experiment: qHTS assay for small molecule antagonists of vitamin D receptor signaling (AID 588541); settings: HEK293T VDR-UAS-bla, beta-lactamase ratio, antagonist mode; at 76.7 µM (top of the series);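 further: receptor activated by calcitriol during compound treatment; on the % scale 0 is the no-effect control and ±100 the full control effect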
# In short: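 VDR-UAS-bla HEK293T cells (2000/well, 2% charcoal-stripped FBS) were treated with titrated compounds plus 1-alpha,25-dihydroxyvitamin D3 (50 nM or 3 nM final) for 16 h at 37 C. CCF4 beta-lactamase fluorescence was read; Hill fits gave IC50.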
# [13] = molecular target: Vitamin D3 receptor (Homo sapiens) (UniProt P11473); experiment: qHTS assay for small molecule agonists of vitamin D receptor signaling (AID 588543); settings: HEK293T VDR-UAS-bla, beta-lactamase ratio, 16 h; at 76.8 µM (top of the series);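 further: 0% = DMSO basal and 100% = reference agonist control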
# In short: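 Reporter cells (HEK293T, VDR-UAS-bla) were seeded in medium with 2% charcoal-stripped serum and incubated 5 h, then compounds in concentration series were added for 16 h at 37 °C. Stimulation was scaled between DMSO basal and 50 nM 1α,25-dihydroxyvitamin D3.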
# [14] = qHTS assay for small molecule agonists of retinoid X receptor alpha signaling (AID 588544); settings: HEK293T RXRa-UAS-bla, beta-lactamase reporter, 18 h; 530 nm emission;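 on activation: 0% = DMSO basal wells and 100% = reference agonist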
# [15] = molecular target: Retinoic acid receptor RXR-alpha (Homo sapiens) (UniProt P19793); experiment: as above; settings: HEK293T RXRa-UAS-bla, beta-lactamase reporter, 18 h; at 76.7 µM (top of the series)
# [16] = molecular target: Thyroid hormone receptor beta (Homo sapiens) (UniProt P10828); experiment: qHTS assay for small molecule agonists of thyroid hormone receptor beta signaling (AID 588545); settings: TR-UAS-bla GripTite HEK 293, beta-lactamase ratio, agonist mode, 18 h, percent of T3 response, DMSO as zero; at 76.7 µM (top of the series);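 further: 0% = DMSO only and 100% = 10 nM T3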
# In short: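 Efficacy and EC50 values derive from Hill fits of qHTS titration data, normalized to 10 nM T3 and DMSO-only wells. HEK 293 reporter cells were stimulated for 18 hrs at 37 C, with beta-lactamase activity measured by CCF4 fluorescence.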
# [17] = qHTS assay for small molecule antagonists of retinoid X receptor alpha signaling (AID 588546; active means well fitted inhibition curve with a large enough effect in the signal ratio, with a control signal flat, not every such curve was filed as active; the % refers to the signal ratio); settings: HEK293T RXRa-UAS-bla, beta-lactamase ratio, antagonist mode; measured here: W530 green channel, cytotoxicity proxy
# In short: (§2)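 Beta-lactamase reporter inhibition, read as CCF4 fluorescence ratio (ex 405, em 460/530 nm) after 2 h at RT. HEK293T UAS-bla cells, 2500/well, were stimulated with 9-cis-RA at 500 or 100 nM final alongside test compound for 18 h at 37 C.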
# [18] = molecular target: Retinoic acid receptor RXR-alpha (Homo sapiens) (UniProt P19793); experiment: as above; settings: HEK293T RXRa-UAS-bla, beta-lactamase ratio, antagonist mode
# In short: as §2
# [19] = molecular target: Thyroid hormone receptor beta (Homo sapiens) (UniProt P10828); experiment: qHTS assay for small molecule antagonists of thyroid hormone receptor beta signaling (AID 588547; active means well fitted inhibition curve with a large enough effect in the signal ratio, with a control signal flat, not every such curve was filed as active; the % refers to the signal ratio); settings: TR-UAS-bla HEK293, beta-lactamase ratio, antagonist mode, 18 h
# In short: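 TR-UAS-bla GripTite HEK293 cells in 2% charcoal/dextran FBS medium were preincubated 4 h at 37 C, given compound (0.59 nM to 92 uM) plus 0.4 nM T3 (final) for 18 h, then CCF4 for 2 h at RT; Hill fit gave IC50.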
# [20] = molecular target: Peroxisome proliferator-activated receptor alpha (Homo sapiens) (UniProt Q07869); experiment: qHTS assay for small molecule agonists of the peroxisome proliferator-activated receptor alpha (PPARalpha) signaling pathway (AID 651778; active means well fitted curve in the direction sought with a large enough effect; an effect the other way counts as inactive or inconclusive; further: % of control where 0% means no effect); settings: PathHunter PPARalpha complementation, chemiluminescence, 6 h; stronger effect = higher value
# In short: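 Cells plated at 2,000/well and held overnight at 37 C, 5% CO2, then compound added by pin tool for 6 hr; after PathHunter detection reagent and 60 min at room temperature, chemiluminescence from enzyme complementation was read.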
# [21] = qHTS assay for cell viability of the p53RE-bla HCT-116 cell line (AID 743292; active means well fitted curve in the direction sought with a large enough effect; an effect the other way counts as inactive or inconclusive; further: on the % scale 0 is the no-effect control and ±100 the full control effect; nearly all actives have a fitted effect of over 55% in size); settings: p53RE-bla HCT-116 viability, ATP luminescence, 16 h; at 95 µM (top of the series)
# In short: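 Readout: CellTiter-Glo luminescence after 30 min RT. Treatment: compounds in DMSO, 16 h, 37 C. Cells: CellSensor p53RE-bla HCT-116, 4,000/well, preincubated 5 h.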
smiles,measurement,setting,value
CCCCCCCC1CCC(=O)O1 (stereo unspecified),"activity, negative = inhibition",[1],inactive: -2.09%
same,activation,[2],inactive: 0.116%
same,"activity change, negative = inhibition",[3],inactive: -1.92%
same,activation,[4],inactive: 2.91%
same,activation,[5],inactive: 0.9%
same,"activity change, negative = inhibition",[6],inactive: -0.275%
same,activation,[7],inactive: 3.67%
same,max response,[8],-15.6%
same,"activity change, negative = inhibition",[9],inactive: 17.2%
same,activation,[10],inactive: -1.95%
same,"activity, negative = inhibition",[11],inactive: 2.75%
same,"activity change, negative = inhibition",[12],inactive: 3.03%
same,activation,[13],inactive: 3.03%
same,max response,[14],-12.8%
same,activation,[15],inactive: 0%
same,activation,[16],inactive: -4.52%
same,max response,[17],-9.44%
same,max response,[18],inactive: 1.06%
same,activity change % (negative = inhibition),[19],inactive: 10.8%
same,max response,[20],inactive: -1.28%
same,"activity change, negative = cytotoxicity",[21],inactive: 0.0504%
